Measured values reported in PMC5668370.

T1: RNF8 (endogenous, rat cerebellum) (rat (endogenous in cerebellum)) (UniProt Q4KLN8)
T1 sequence: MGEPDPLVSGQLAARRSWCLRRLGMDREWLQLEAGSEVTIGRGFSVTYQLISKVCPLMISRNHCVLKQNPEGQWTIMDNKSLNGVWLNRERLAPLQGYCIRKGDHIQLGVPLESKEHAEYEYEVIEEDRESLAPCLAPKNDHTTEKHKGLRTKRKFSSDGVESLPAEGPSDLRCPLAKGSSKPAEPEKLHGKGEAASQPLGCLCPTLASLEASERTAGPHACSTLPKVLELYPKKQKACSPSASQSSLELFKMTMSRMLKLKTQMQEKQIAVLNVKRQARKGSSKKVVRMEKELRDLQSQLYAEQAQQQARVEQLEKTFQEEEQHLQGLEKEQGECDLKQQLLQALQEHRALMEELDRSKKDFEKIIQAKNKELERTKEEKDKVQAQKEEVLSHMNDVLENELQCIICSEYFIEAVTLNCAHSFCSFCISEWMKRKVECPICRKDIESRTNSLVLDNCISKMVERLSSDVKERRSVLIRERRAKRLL


Legend:
[1] = biological target: T1, RNF8 (endogenous, rat cerebellum) (rat (endogenous in cerebellum)); experiment: co-IP; RNF8 antibody on protein G beads, overnight at 4 °C with the cytoplasmic fraction of rat cerebellum lysate; wash 50 mM Tris-HCl pH8.0, 150 mM NaCl, 0.5% Triton X-100; immunoblotting
Flag-NEURL4 (rat) = experiment: co-IP; 293T cells transfected with HA-HERC2 P6, Flag-NEURL4, GFP-RNF8 WT or GFP-RNF8 R42A; HA antibody with protein G beads or Flag M2 agarose, 2 h; 50 mM Tris-HCl pH8.0, 150 mM NaCl, 1% Triton X-100; immunoblotting

| Molecule | binding [1] | binding (Flag-NEURL4 (rat)) |
| --- | --- | --- |
| HERC2 (endogenous, rat cerebellum) | binds |  |
| GFP-RNF8 WT (protein, UniProt Q4KLN8 1-487) MGEPDPLVSGQLAARRSWCLRRLGMDREWLQLEAGSEVTIGRGFSVTYQLISKVCPLMISRNHCVLKQNPEGQWTIMDNKSLNGVWLNRERLAPLQGYCIRKGDHIQLGVPLESKEHAEYEYEVIEEDRESLAPCLAPKNDHTTEKHKGLRTKRKFSSDGVESLPAEGPSDLRCPLAKGSSKPAEPEKLHGKGEAASQPLGCLCPTLASLEASERTAGPHACSTLPKVLELYPKKQKACSPSASQSSLELFKMTMSRMLKLKTQMQEKQIAVLNVKRQARKGSSKKVVRMEKELRDLQSQLYAEQAQQQARVEQLEKTFQEEEQHLQGLEKEQGECDLKQQLLQALQEHRALMEELDRSKKDFEKIIQAKNKELERTKEEKDKVQAQKEEVLSHMNDVLENELQCIICSEYFIEAVTLNCAHSFCSFCISEWMKRKVECPICRKDIESRTNSLVLDNCISKMVERLSSDVKERRSVLIRERRAKRLL |  | binds |

No constants are given. Whether binding was seen depends on the method and setting. In cells and extracts the contact can be indirect. Binding can be weak; no strength is given. For some assays here: Tags and fused reporters may be left off the sequences shown.
